Drawing on PMC10203884, this text covers binding for 2 molecules.

By UniProt entry, the sequences of proteins in these tests, tags left out.
UniProt P46940: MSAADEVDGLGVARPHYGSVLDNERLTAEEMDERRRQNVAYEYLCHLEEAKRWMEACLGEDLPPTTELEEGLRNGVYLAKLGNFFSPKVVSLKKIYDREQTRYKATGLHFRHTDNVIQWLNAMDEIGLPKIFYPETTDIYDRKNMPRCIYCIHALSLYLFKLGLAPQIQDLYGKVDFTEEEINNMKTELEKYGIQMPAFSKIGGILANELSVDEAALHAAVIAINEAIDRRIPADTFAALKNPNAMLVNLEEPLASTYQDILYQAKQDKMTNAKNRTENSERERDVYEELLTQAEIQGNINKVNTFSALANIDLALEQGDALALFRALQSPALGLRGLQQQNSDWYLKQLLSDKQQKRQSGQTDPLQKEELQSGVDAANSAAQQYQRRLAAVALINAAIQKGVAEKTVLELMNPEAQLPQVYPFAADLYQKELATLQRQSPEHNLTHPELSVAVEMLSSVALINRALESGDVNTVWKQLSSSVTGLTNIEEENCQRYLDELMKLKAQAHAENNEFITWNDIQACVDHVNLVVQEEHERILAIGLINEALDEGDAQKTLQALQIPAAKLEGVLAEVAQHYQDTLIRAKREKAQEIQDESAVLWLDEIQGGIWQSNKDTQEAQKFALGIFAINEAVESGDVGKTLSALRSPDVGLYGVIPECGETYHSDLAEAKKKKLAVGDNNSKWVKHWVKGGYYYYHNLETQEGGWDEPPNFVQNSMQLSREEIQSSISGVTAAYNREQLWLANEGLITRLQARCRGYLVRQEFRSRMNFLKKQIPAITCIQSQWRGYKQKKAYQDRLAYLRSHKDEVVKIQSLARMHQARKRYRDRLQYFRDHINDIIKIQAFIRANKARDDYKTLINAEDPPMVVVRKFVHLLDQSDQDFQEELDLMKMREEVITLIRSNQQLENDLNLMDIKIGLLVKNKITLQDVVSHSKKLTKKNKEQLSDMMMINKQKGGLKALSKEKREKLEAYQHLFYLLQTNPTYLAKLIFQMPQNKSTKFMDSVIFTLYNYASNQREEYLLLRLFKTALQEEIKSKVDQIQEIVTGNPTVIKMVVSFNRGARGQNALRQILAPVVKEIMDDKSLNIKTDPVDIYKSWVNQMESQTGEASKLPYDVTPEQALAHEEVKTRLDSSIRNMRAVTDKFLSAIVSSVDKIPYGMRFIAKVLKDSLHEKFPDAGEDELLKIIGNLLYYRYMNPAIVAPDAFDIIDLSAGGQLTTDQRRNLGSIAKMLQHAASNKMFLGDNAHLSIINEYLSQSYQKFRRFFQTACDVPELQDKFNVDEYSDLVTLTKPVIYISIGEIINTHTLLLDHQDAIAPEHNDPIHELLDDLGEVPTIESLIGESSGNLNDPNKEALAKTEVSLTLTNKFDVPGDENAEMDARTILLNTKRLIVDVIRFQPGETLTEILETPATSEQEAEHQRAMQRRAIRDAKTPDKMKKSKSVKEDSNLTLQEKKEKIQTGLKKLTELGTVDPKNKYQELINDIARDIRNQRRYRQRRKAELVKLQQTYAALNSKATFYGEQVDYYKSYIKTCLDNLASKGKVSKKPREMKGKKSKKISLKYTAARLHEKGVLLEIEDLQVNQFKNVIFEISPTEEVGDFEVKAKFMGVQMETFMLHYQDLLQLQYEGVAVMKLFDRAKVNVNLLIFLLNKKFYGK
UniProt Q8TBZ5: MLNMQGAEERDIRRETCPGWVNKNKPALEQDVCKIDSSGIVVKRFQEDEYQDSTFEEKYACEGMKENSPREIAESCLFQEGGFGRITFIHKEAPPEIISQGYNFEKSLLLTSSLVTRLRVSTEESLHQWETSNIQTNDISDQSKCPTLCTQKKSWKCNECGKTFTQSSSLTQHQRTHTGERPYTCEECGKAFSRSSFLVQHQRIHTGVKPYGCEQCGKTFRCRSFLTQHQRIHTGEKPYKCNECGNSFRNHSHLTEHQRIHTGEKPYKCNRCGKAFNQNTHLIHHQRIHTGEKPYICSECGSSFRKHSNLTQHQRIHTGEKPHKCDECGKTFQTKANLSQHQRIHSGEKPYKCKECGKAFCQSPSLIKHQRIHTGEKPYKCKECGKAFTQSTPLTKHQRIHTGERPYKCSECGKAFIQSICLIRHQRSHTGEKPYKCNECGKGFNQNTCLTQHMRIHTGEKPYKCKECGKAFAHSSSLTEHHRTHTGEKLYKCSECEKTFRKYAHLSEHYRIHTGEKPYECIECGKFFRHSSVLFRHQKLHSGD

The target in assay [1] is IQ motif containing GTPase-activating protein 1 (IQGAP1) (human (endogenous in U87 and LN18)) (UniProt P46940). In words: affinity purification with mass spectrometry; LN18 cells treated 48 h with 10 uM Haldol or DMSO; NP40 lysates immunoprecipitated with IQGAP1-specific monoclonal antibody (IgG as control), protein A beads, 4 C; SDS-PAGE, in-gel trypsin digest, MALDI-TOF, Mascot.

For assay [2] the target is unchanged. In words: affinity purification with mass spectrometry; U87 cells treated 48 h with 10 uM Haldol or DMSO; NP40 lysates immunoprecipitated with IQGAP1-specific monoclonal antibody (IgG as control), protein A beads, 4 C; SDS-PAGE, in-gel trypsin digest, MALDI-TOF, Mascot.

These are yes or no findings as the source states them, for the method shown. Binding seen in cells or lysates may run through a third protein. Here binding means that the protein was enriched with, or labelled near, the bait; the list need not be complete.

Take “Zinc finger protein 502 (ZN502) (from UniProt Q8TBZ5 1-544)”: in assay [1], the binding result is listed as “binds”.

B1: Retinol dehydrogenase 11 isoform 1 precursor (RDH11) (protein, UniProt Q8TC12-1 1-318)
chain: MVELMFPLLLLLLPFLLYMAAPQIRKMLSSGVCTSTVQLPGKVVVVTGANTGIGKETAKELAQRGARVYLACRDVEKGELVAKEIQTTTGNQQVLVRKLDLSDTKSIRAFAKGFLAEEKHLHVLINNAGVMMCPYSKTADGFEMHIGVNHLGHFLLTHLLLEKLKESAPSRIVNVSSLAHHLGRIHFHNLQGEKFYNAGLAYCHSKLANILFTQELARRLKGSGVTTYSVHPGTVQSELVRHSSFMRWMWWLFSFFIKTPQQGAQTSLHCALTEGLEILSGNHFSDCHVAWVSAQARNETIARRLWDVSCDLLGLPID
Take B1: the binding entry in assay [2] is “binds”.
